Results are given in words; binding and its absence hold for the method and conditions named. In cells and extracts the contact can be indirect. Some entries that bind do so weakly or less than the wild type. For some of these results: Tags and fused reporters may be left off the sequences shown.
Legend:
[1] = biological target: T1, Flag-TRIM8 (Tripartite motif 8) (UniProt Q9BZR9); test: co-IP; HEK293T cells transfected with Flag-TRIM8 and V5-HNF1α; IP lysis buffer; anti-Flag or anti-V5 affinity gel overnight at 4 °C; wash buffer 20 mM Tris-HCl pH 7.4, 100 mM NaCl, 0.5% NP40, 0.5% Triton-X100, 10% glycerol
T1 sequence: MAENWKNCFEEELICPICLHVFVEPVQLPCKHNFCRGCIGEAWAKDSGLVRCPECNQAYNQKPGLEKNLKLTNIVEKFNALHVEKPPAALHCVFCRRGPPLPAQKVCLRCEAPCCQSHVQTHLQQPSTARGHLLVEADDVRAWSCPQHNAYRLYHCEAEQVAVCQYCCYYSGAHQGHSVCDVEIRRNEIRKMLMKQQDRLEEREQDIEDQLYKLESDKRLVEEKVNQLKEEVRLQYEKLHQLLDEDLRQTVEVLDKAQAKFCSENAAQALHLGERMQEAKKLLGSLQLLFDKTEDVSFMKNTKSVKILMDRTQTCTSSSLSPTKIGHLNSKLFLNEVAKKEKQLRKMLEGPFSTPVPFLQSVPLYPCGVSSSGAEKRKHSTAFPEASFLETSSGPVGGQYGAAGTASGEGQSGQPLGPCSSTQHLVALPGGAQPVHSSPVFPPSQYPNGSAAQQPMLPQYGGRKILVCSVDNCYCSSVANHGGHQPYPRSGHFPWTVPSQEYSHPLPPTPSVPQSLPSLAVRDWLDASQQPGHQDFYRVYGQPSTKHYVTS

Sequences of proteins named here, by UniProt entry; tags and fusion partners are left off.
UniProt P20823: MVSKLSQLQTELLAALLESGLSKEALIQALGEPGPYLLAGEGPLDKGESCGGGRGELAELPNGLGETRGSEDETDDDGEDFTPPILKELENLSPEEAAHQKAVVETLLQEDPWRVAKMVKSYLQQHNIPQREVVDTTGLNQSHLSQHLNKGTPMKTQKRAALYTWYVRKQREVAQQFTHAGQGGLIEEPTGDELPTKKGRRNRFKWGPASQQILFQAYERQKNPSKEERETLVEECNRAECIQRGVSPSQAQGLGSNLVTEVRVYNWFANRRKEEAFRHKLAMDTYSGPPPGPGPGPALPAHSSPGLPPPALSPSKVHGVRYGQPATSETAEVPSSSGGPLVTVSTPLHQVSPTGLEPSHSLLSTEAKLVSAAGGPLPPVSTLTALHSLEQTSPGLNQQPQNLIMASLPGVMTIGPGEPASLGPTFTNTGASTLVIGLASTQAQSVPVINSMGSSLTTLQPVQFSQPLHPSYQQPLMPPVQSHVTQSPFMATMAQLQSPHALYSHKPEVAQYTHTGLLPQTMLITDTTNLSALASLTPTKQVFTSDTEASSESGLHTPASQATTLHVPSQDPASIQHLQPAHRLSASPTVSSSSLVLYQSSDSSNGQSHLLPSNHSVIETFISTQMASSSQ

[2] = biological target: T1, Flag-TRIM8 (Tripartite motif 8); test: co-IP; deletion mutants of TRIM8 tested with HNF1α; cells, tags and precipitated partner not told in the text (Supplementary Fig. S5A, B)
[3] = biological target: T2, endogenous TRIM8 (Tripartite motif 8) (human (endogenous in Huh7)) (UniProt Q9BZR9); test: proximity ligation; in situ proximity ligation assay in Huh7 cells
T2 sequence: T1 sequence

[4] = biological target: T2, endogenous TRIM8 (Tripartite motif 8) (human (endogenous in Huh7)); test: co-IP; endogenous proteins in Huh7 lysate; TRIM8 antibody (sc-398878) or IgG overnight at 4 °C, protein G agarose

Row | binding [1] | binding [2] | binding [3] | binding [4] | Substance
1 | binds | binds |  |  | V5-HNF1α (Hepatocyte nuclear factor 1α) (from UniProt P20823 1-631)
2 |  |  | binds | binds | endogenous HNF1α (Hepatocyte nuclear factor 1α) (from UniProt P20823 1-631)

From PMC11180176
